Assay results reported in US20240325399A1, “PHARMACEUTICAL COMPOSITION FOR PREVENTING OR TREATING CHOLANGITIS OR LIVER DISEASE CAUSED BY CHOLANGITIS COMPRISING ADENOSINE DERIVATIVE” (FUTURE MEDICINE CO., LTD., priority 2021, published 2024).
For some of these results: At least one structure is not confirmed: it was looked up by name or label, or the drawing left a doubt. Some results were stated once for a whole list of compounds, not compound by compound.

How the values were obtained:
[1] = test system: TPA-induced inflammation of the mouse ear; experiment: Anti-inflammatory activity, TPA-induced inflammation of the mouse ear; type: in vivo, ICR mice; conditions: 0.5% in acetone, 20 μl, topical to ear
Protocol: The adenosine derivatives of the present invention were examined for anti-inflammatory activity in the following animal test. Seven-week-old male ICR mice were treated with TPA (12-O-tetradecanoylphorbol-13-acetate, 20 l) in the right ear. […] Hydrocortisone was used at the same concentration as a control.
6 hrs after treatment with TPA, the mice were secondarily treated with the adenosine derivatives of the present invention. 24 hrs after TPA treatment, test animals were euthanized using a cervical dislocation method. Samples were obtained from the right ear using a 6 mm diameter punch. The activity was observed by measuring the ear sample using a microbalance. Percentages of inhibition were calculated using the following Equation 1. The compositions and amounts used in these experiments are summarized in Tables 14 to 17 and the anti-inflammatory activities thereof are shown in FIGS. 10 to 13.

[2] = test system: primary biliary cholangitis (PBC); conditions: after 4 months of UDCA treatment; cited from earlier work

SMILES	Anti-inflammatory activity (TPA-induced mouse ear inflammation) [1]	Patients who do not experience any effect [2]
O[C@@H]1[C@H](O)CS[C@H]1n1cnc2c(NCc3cccc(Cl)c3)nc(Cl)nc21 [Example 2, (2R,3R,4S)-2-(2-chloro-6-(3-chlorobenzylamino)-9H-purin-9-yl)tetrahydrothiophen-3,4-diol]	inhibit the TPA-induced inflammation of the mouse ear to some degree	–
O[C@@H]1[C@H](O)CS[C@H]1n1cnc2c(NCc3cccc(Br)c3)nc(Cl)nc21 [Example 3, (2R,3R,4S)-2-(6-(3-bromobenzylamino)-2-chloro-9H-purin-9-yl)tetrahydrothiophen-3,4-diol]	inhibit the TPA-induced inflammation of the mouse ear to some degree	–
O[C@@H]1[C@H](O)CS[C@H]1n1cnc2c(NCc3cccc(I)c3)nc(Cl)nc21 [Example 4, (2R,3R,4S)-2-(2-chloro-6-(3-iodobenzylamino)-9H-purin-9-yl)tetrahydrothiophen-3,4-diol]	inhibit the TPA-induced inflammation of the mouse ear to some degree	–
C[C@H](CCC(=O)O)[C@H]1CC[C@H]2[C@@H]3[C@@H](O)C[C@@H]4C[C@H](O)CC[C@]4(C)[C@H]3CC[C@]12C [UDCA, ursodeoxycholic acid]	–	up to 50%
